Reference: PMC5386304
These are yes or no findings as the source states them, for the method shown. Binding seen in cells or lysates may run through a third protein. Some entries that bind do so weakly or less than the wild type. Sequences can lack the tags named with a protein.

Key:
Test in all cases: co-IP; NT2/D1 cells co-transfected with FLAG-SEPT12 and a GFP-SEPT12 plasmid; lysates immunoprecipitated with anti-GFP or reciprocally with anti-FLAG; blots with anti-FLAG and anti-GFP
[1] = biological target: T1, GFP-SEPT12S198D (human) (UniProt Q8IYM1)
T1 sequence: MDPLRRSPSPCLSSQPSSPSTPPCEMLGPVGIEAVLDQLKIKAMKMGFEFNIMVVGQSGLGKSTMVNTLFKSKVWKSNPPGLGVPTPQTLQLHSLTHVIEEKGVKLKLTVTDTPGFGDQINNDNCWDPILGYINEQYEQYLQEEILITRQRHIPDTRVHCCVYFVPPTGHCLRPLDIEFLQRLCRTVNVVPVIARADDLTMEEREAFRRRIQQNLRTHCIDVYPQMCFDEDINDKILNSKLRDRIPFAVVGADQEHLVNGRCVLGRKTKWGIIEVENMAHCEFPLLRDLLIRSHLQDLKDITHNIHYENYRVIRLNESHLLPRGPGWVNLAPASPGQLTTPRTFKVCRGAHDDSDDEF

[2] = biological target: T2, GFP-SEPT12S198E (human) (UniProt Q8IYM1)
T2 sequence: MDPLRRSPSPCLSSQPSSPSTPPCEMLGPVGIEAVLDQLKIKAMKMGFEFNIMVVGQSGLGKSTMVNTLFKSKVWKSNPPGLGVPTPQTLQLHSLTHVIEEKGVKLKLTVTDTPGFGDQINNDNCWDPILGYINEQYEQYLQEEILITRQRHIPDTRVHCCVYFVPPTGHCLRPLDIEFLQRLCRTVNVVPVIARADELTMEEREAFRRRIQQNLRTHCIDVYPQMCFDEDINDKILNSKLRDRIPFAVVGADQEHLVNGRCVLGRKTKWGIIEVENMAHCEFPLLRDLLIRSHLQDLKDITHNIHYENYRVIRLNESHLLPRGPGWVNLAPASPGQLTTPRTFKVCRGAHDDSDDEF

[3] = biological target: T3, GFP-SEPT12WT (human) (UniProt Q8IYM1)
T3 sequence: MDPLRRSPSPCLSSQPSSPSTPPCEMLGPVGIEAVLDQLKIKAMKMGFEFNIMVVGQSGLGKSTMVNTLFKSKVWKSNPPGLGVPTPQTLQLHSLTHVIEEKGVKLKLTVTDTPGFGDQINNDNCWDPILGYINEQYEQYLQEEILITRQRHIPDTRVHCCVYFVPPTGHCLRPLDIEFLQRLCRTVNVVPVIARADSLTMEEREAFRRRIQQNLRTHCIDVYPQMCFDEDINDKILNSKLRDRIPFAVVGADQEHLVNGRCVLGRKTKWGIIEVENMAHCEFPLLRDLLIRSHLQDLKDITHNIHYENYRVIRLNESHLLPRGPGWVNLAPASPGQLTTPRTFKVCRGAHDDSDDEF

- binding [1]: binds
- binding [2]: binds
- binding [3]: binds
B1: FLAG-SEPT12WT (protein, UniProt Q8IYM1 1-358)
chain: MDPLRRSPSPCLSSQPSSPSTPPCEMLGPVGIEAVLDQLKIKAMKMGFEFNIMVVGQSGLGKSTMVNTLFKSKVWKSNPPGLGVPTPQTLQLHSLTHVIEEKGVKLKLTVTDTPGFGDQINNDNCWDPILGYINEQYEQYLQEEILITRQRHIPDTRVHCCVYFVPPTGHCLRPLDIEFLQRLCRTVNVVPVIARADSLTMEEREAFRRRIQQNLRTHCIDVYPQMCFDEDINDKILNSKLRDRIPFAVVGADQEHLVNGRCVLGRKTKWGIIEVENMAHCEFPLLRDLLIRSHLQDLKDITHNIHYENYRVIRLNESHLLPRGPGWVNLAPASPGQLTTPRTFKVCRGAHDDSDDEF
